Laboratory results taken from article PMC7868338, “Identification of Functional Interactome of Colistin Resistance Protein MCR-1 in Escherichia coli” (Frontiers in Microbiology, 2020).

By UniProt entry, the sequences of proteins in these tests, tags left out. Residues count along the entry.
UniProt P0AG30: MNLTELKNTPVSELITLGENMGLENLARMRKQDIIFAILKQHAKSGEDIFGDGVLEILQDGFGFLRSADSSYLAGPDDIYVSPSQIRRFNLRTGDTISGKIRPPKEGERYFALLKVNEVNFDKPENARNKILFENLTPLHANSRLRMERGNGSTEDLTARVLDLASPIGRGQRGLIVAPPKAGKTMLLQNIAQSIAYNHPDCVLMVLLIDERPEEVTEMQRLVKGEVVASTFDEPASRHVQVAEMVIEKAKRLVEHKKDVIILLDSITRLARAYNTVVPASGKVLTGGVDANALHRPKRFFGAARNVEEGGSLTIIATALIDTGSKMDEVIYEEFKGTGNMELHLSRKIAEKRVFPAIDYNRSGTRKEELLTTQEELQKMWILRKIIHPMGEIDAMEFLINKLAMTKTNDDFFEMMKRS
UniProt P0A9K9: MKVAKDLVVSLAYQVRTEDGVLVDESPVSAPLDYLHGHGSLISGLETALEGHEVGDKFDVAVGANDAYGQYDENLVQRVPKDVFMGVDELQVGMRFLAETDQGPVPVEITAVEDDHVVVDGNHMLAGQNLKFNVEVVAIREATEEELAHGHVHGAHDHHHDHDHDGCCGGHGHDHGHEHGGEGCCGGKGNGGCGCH
UniProt P02925, residues 26-296: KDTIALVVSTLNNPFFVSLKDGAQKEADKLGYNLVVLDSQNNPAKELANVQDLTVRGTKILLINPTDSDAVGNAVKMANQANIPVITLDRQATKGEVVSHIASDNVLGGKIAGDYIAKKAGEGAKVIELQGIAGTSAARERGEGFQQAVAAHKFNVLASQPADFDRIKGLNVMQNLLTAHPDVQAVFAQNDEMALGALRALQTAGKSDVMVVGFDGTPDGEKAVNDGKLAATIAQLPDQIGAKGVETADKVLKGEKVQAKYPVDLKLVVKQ
UniProt P0AEZ3: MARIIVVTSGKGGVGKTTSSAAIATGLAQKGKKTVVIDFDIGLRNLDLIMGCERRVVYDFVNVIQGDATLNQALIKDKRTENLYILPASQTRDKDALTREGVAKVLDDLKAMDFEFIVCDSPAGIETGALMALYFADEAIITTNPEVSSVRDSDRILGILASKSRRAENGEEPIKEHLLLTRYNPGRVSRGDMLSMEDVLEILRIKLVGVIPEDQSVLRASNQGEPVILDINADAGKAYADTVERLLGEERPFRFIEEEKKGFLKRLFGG
UniProt P0AE06, residues 25-397: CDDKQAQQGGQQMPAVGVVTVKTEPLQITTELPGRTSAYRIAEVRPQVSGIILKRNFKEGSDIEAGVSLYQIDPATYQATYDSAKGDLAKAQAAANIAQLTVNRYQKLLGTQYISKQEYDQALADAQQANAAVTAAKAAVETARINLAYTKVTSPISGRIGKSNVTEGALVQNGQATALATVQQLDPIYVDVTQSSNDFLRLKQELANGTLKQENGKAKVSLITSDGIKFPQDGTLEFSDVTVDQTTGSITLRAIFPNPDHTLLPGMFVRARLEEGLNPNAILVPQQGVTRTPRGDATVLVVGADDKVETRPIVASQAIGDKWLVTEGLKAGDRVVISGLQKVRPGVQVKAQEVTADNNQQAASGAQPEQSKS
UniProt P0ABA0: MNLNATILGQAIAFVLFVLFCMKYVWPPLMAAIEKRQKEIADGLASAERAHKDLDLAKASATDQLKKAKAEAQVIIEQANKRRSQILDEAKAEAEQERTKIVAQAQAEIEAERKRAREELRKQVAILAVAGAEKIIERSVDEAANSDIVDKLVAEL
UniProt P64596, residues 19-191: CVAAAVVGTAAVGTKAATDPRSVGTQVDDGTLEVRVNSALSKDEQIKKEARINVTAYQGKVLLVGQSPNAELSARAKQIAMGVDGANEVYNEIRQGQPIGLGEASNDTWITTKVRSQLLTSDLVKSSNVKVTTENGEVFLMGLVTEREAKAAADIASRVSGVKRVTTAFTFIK
UniProt P0AGE0: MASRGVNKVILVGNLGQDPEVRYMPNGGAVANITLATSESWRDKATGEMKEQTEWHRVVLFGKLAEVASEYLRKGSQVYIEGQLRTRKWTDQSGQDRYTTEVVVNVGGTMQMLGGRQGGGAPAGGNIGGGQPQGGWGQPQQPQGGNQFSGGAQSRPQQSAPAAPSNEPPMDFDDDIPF
UniProt P0A910, residues 22-346: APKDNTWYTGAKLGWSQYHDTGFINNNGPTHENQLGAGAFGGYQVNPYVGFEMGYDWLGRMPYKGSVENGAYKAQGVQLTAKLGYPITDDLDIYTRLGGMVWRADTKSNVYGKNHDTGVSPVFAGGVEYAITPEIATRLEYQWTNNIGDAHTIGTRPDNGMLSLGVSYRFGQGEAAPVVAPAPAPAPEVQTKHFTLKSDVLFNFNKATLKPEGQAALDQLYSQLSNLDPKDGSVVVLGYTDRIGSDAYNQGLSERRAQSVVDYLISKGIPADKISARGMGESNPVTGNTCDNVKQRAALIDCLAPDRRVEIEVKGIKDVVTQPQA
UniProt P0A7J3: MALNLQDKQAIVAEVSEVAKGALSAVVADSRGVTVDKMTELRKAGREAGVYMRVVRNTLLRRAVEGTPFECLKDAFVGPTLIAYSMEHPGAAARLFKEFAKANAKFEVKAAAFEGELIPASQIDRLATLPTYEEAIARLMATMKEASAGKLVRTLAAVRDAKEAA
UniProt P0A6Y1: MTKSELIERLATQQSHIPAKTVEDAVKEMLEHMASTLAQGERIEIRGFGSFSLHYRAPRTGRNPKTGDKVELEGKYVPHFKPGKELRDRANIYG
UniProt P0A6X7: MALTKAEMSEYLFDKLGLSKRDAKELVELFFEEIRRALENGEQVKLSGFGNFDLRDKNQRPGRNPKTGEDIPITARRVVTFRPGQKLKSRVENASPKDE

Molecular target: T1, MCR-1 full-length protein (E. coli (strain SHP45))
T1 sequence: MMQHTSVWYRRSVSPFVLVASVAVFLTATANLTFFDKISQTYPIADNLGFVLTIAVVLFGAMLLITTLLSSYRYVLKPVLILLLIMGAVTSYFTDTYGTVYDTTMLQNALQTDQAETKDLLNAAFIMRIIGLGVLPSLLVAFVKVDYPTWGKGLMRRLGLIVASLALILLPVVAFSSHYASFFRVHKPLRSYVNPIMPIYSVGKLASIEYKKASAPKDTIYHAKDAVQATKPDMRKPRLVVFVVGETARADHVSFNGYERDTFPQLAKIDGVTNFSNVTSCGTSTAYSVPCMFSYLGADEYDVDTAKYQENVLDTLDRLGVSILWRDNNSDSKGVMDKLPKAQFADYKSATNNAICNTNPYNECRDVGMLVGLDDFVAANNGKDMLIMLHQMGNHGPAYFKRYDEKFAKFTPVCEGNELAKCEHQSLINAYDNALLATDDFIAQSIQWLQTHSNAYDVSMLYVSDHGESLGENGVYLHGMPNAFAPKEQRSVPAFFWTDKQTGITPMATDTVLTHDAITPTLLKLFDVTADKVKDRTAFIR
Assay: affinity purification with mass spectrometry; Co-IP with anti-MCR-1 mAb 3G4 and G-Sepharose from E. coli lysates (50 mM Tris-HCl pH 7.5, 300 mM NaCl, 1 mM PMSF, 1% DDM), 4°C; co-precipitates eluted with 0.2 M glycine pH 2.3 and identified by nano LC-MS/MS; anti-IgG and empty vector pull-downs as negative controls

Molecule | binding
50S ribosomal protein L7/L12 (from UniProt P0A7K2 1-121) | binds
Transcription termination factor Rho (from UniProt P0AG30 1-419) | binds
FKBP-type peptidyl-prolyl cis-trans isomerase SlyD (from UniProt P0A9K9 1-196) | binds
Ribose import binding protein RbsB (from UniProt P02925 26-296) | binds
Septum site-determining protein MinD (from UniProt P0AEZ3 1-270) | binds
Multidrug efflux pump subunit AcrA (from UniProt P0AE06 25-397) | binds
ATP synthase subunit b (from UniProt P0ABA0 1-156) | binds
Uncharacterized protein YraP (from UniProt P64596 19-191) | binds
Single-stranded DNA-binding protein (from UniProt P0AGE0 1-178) | binds
Outer membrane protein A (from UniProt P0A910 22-346) | binds
50S ribosomal protein L10 (from UniProt P0A7J3 1-165) | binds
Integration host factor subunit beta (from UniProt P0A6Y1 1-94) | binds
Integration host factor subunit alpha (from UniProt P0A6X7 1-99) | binds
Sec-independent protein translocase protein TatA (protein, UniProt P69428 1-89) MGGISIWQLLIIAVIVVLLFGTKKLGSIGSDLGASIKGFKKAMSDDEPKQDKTSQDADFTAKTIADKQADTNQEQAKTEDAKRHDKEQV | binds
Membrane protein insertase YidC (protein, UniProt Q0TB02 1-548) MDSQRNLLVIALLFVSFMIWQAWEQDKNPQPQAQQTTQTTTTAAGSAADQGVPASGQGKLISVKTDVLDLTINTRGGDVEQALLPAYPKELNSTQPFQLLETSPQFIYQAQSGLTGRDGPDNPANGPRPLYNVEKDAYVLAEGQNELQVPMTYTDAAGNTFTKTFVLKRGDYAVNVNYNVQNAGEKPLEISTFGQLKQSITLPPHLDTGSSNFALHTFRGAAYSTPDEKYEKYKFDTIADNENLNISSKGGWVAMLQQYFATAWIPHNDGTNNFYTANLGNGIAAIGYKSQPVLVQPGQTGAMNSTLWVGPEIQDKMAAVAPHLDLTVDYGWLWFISQPLFKLLKWIHSFVGNWGFSIIIITFIVRGIMYPLTKAQYTSMAKMRMLQPKIQAMRERLGDDKQRISQEMMALYKAEKVNPLGGCFPLLIQMPIFLALYYMLMGSVELRQAPFALWIHDLSAQDPYYILPILMGVTMFFIQKMSPTTVTDPMQQKIMTFMPVIFTVFFLWFPSGLVLYYIVSNLVTIIQQQLIYRGLEKRGLHSREKKKS | binds
Protein ElaB (protein, UniProt P0AEH5 1-101) MSNQFGDTRIDDDLTLLSETLEEVLRSSGDPADQKYVELKARAEKALDDVKKRVSQASDSYYYRAKQAVYRADDYVHEKPWQGIGVGAAVGLVLGLLLARR | binds
Outer membrane protein TolC (protein, UniProt P02930 23-493) ENLMQVYQQARLSNPELRKSAADRDAAFEKINEARSPLLPQLGLGADYTYSNGYRDANGINSNATSASLQLTQSIFDMSKWRALTLQEKAAGIQDVTYQTDQQTLILNTATAYFNVLNAIDVLSYTQAQKEAIYRQLDQTTQRFNVGLVAITDVQNARAQYDTVLANEVTARNNLDNAVEQLRQITGNYYPELAALNVENFKTDKPQPVNALLKEAEKRNLSLLQARLSQDLAREQIRQAQDGHLPTLDLTASTGISDTSYSGSKTRGAAGTQYDDSNMGQNKVGLSFSLPIYQGGMVNSQVKQAQYNFVGASEQLESAHRSVVQTVRSSFNNINASISSINAYKQAVVSAQSSLDAMEAGYSVGTRTIVDVLDATTTLYNAKQELANARYNYLINQLNIKSALGTLNEQDLLALNNALSKPVSTNPENVAPQTPEQNAIADGYAPDSPAPVVQQTSARTTTSNGHNPFRN | binds
UPF0325 protein YaeH (protein, UniProt Q0TLG8 1-128) MYDNLKSLGITNPEEIDRYSLRQEANNDILKIYFQKDKGEFFAKSVKFKYPRQRKTVVADGVGQGYKEVQEISPNLRYIIDELDQICQRDRSEVDLKRKILDDLRHLESVVTNKISEIEADLEKLTRK | binds
Small heat shock protein IbpA (protein, UniProt P0C054 1-137) MRNFDLSPLYRSAIGFDRLFNHLENNQSQSNGGYPPYNVELVDENHYRIAIAVAGFAESELEITAQDNLLVVKGAHADEQKERTYLYQGIAERNFERKFQLAENIHVRGANLVNGLLYIDLERVIPEAKKPRRIEIN | binds
Protein YihD (protein, UniProt P0ADP9 1-89) MKCKRLNEVIELLQPAWQKEPDLNLLQFLQKLAKESGFDGELADLTDDILIYHLKMRDSAKDAVIPGLQKDYEEDFKTALLRARGVIKE | binds
Cell division protein ZapB (protein, UniProt P0AF36 1-81) MTMSLEVFEKLEAKVQQAIDTITLLQMEIEELKEKNNSLSQEVQNAQHQREELERENNHLKEQQNGWQERLQALLGRMEEV | binds
FKBP-type peptidyl-prolyl cis-trans isomerase FkpA (protein, UniProt P45523 26-270) AEAAKPATAADSKAAFKNDDQKSAYALGASLGRYMENSLKEQEKLGIKLDKDQLIAGVQDAFADKSKLSDQEIEQTLQAFEARVKSSAQAKMEKDAADNEAKGKEYREKFAKEKGVKTSSTGLVYQVVEAGKGEAPKDSDTVVVNYKGTLIDGKEFDNSYTRGEPLSFRLDGVIPGWTEGLKNIKKGGKIKLVIPPELAYGKAGVPGIPPNSTLVFDVELLDVKPAPKADAKPEADAKAADSAKK | binds
Uncharacterized protein YgiM (protein, UniProt P0ADT8 23-206) EETRYVSDELNTWVRSGPGDHYRLVGTVNAGEEVTLLQTDANTNYAQVKDSSGRTAWIPLKQLSTEPSLRSRVPDLENQVKTLTDKLTNIDNTWNQRTAEMQQKVAQSDSVINGLKEENQKLKNELIVAQKKVDAASVQLDDKQRTIIMQWFMYGGGVLGLGLLLGLVLPHLIPSRKRKDRWMN | binds
Aconitate hydratase B (enzyme, UniProt P36683 1-865) MLEEYRKHVAERAAEGIAPKPLDANQMAALVELLKNPPAGEEEFLLDLLTNRVPPGVDEAAYVKAGFLAAIAKGEAKSPLLTPEKAIELLGTMQGGYNIHPLIDALDDAKLAPIAAKALSHTLLMFDNFYDVEEKAKAGNEYAKQVMQSWADAEWFLNRPALAEKLTVTVFKVTGETNTDDLSPAPDAWSRPDIPLHALAMLKNAREGIEPDQPGVVGPIKQIEALQQKGFPLAYVGDVVGTGSSRKSATNSVLWFMGDDIPHVPNKRGGGLCLGGKIAPIFFNTMEDAGALPIEVDVSNLNMGDVIDVYPYKGEVRNHETGELLATFELKTDVLIDEVRAGGRIPLIIGRGLTTKAREALGLPHSDVFRQAKDVAESDRGFSLAQKMVGRACGVKGIRPGAYCEPKMTSVGSQDTTGPMTRDELKDLACLGFSADLVMQSFCHTAAYPKPVDVNTHHTLPDFIMNRGGVSLRPGDGVIHSWLNRMLLPDTVGTGGDSHTRFPIGISFPAGSGLVAFAAATGVMPLDMPESVLVRFKGKMQPGITLRDLVHAIPLYAIKQGLLTVEKKGKKNIFSGRILEIEGLPDLKVEQAFELTDASAERSAAGCTIKLNKEPIIEYLNSNIVLLKWMIAEGYGDRRTLERRIQGMEKWLANPELLEADADAEYAAVIDIDLADIKEPILCAPNDPDDARPLSAVQGEKIDEVFIGSCMTNIGHFRAAGKLLDAHKGQLPTRLWVAPPTRMDAAQLTEEGYYSVFGKSGARIEIPGCSLCMGNQARVADGATVVSTSTRNFPNRLGTGANVFLASAELAAVAALIGKLPTPEEYQTYVAQVDKTAVDTYRYLNFNQLSQYTEKADGVIFQTAV | binds
Tyrosine–tRNA ligase (enzyme, UniProt P0AGJ9 1-424) MASSNLIKQLQERGLVAQVTDEEALAERLAQGPIALYCGFDPTADSLHLGHLVPLLCLKRFQQAGHKPVALVGGATGLIGDPSFKAAERKLNTEETVQEWVDKIRKQVAPFLDFDCGENSAIAANNYDWFGNMNVLTFLRDIGKHFSVNQMINKEAVKQRLNREDQGISFTEFSYNLLQGYDFACLNKQYGVVLQIGGSDQWGNITSGIDLTRRLHQNQVFGLTVPLITKADGTKFGKTEGGAVWLDPKKTSPYKFYQFWINTADADVYRFLKFFTFMSIEEINALEEEDKNSGKAPRAQYVLAEQVTRLVHGEEGLQAAKRITECLFSGSLSALSEADFEQLAQDGVPMVEMEKGADLMQALVDSELQPSRGQARKTIASNAITINGEKQSDPEYFFKEEDRLFGRFTLLRRGKKNYCLICWK | binds
Cell division protein ZapA (protein, UniProt P0ADS2 1-109) MSAQPVDIQIFGRSLRVNCPPDQRDALNQAADDLNQRLQDLKERTRVTNTEQLVFIAALNISYELAQEKAKTRDYAASMEQRIRMLQQTIEQALLEQGRITEKTNQNFE | binds
Universal stress protein F (protein, UniProt P37903 1-144) MNRTILVPIDISDSELTQRVISHVEEEAKIDDAEVHFLTVIPSLPYYASLGLAYSAELPAMDDLKAEAKSQLEEIIKKFKLPTDRVHVHVEEGSPKDRILELAKKIPAHMIIIASHRPDITTYLLGSNAAAVVRHAECSVLVVR | binds
Chaperone protein Skp (protein, UniProt P0AEU7 21-161) ADKIAIVNMGSLFQQVAQKTGVSNTLENEFKGRASELQRMETDLQAKMKKLQSMKAGSDRTKLEKDVMAQRQTFAQKAQAFEQDRARRSNEERGKLVTRIQTAVKSVANSQDIDLVVDANAVAYNSSDVKDITADVLKQVK | binds

Results are given in words; binding and its absence hold for the method and conditions named. Binding seen in cells or lysates may run through a third protein. A yes stands for co-enrichment or nearness to the bait. Other partners may have been found.
